Laboratory results reported in PubChem BioAssay AID504467 (National Center for Advancing Translational Sciences (NCATS), 2011).
Among all 330,000 compounds or so, about 7,700 (2.3%) were called active. Inconclusive means that the source gave no clear call. Such entries were picked first, then a sample of the others. Calls come from the whole dose curve; as a rule, active = well fitted inhibition curve with a large enough effect; inconclusive = small, poorly fitted or top-dose-only effect, or effect the other way; inactive = flat fitted curve, though single readings scatter. Potencies of inconclusive entries are doubtful fits and often do not repeat.

Assay: qHTS screen for small molecules that inhibit ELG1-dependent DNA repair in human embryonic kidney (HEK293T) cells expressing luciferase-tagged ELG1; note: nearly all actives have a fitted effect of over 55% in size
Settings: HEK293T ELG1-luciferase reporter, luminescence, 16 h, DNA damage induced by 5-fluorouridine; activity change, negative = inhibition: at 46.1 µM (top of the series)
In short: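 Step one: seed 2,000 cells per well. Step two: pin-transfer compound or DMSO alongside 5-fluorouridine. Step three: incubate 16 hr, 37 °C, 5% CO2. Step four: add ONE-Glo, wait 30 min, read luminescence.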
% is set by controls: 0 for no effect and ±100 for the full control effect; potency is the fitted concentration of half-maximal effect.

Structure (SMILES) | Potency | activity change, negative = inhibition
COc1cccc(CN(C)Cc2cc(=O)oc3c(C)c(C)ccc23)c1 | inconclusive: 18.3 µM [activator, single point] | 
CCOc1cc(NC(=O)CCl)c(OCC)cc1NC(=O)CCl | inconclusive: 20.6 µM [inhibitor, single point] | 
O=C(c1ccc(-c2ccccc2Cl)o1)N1CCN(S(=O)(=O)c2cccs2)CC1 | inconclusive: 3.26 µM [activator, single point] | 
Cc1ccc(OCCC(=O)OCC(=O)NC2CCS(=O)(=O)C2)cc1 (stereo not drawn) | inconclusive: 20.6 µM [activator, partial curve, poor fit] | 
Cc1ccc(CNC(=O)Nc2ccccc2)cc1 | inconclusive: 20.6 µM [activator, partial curve] | 
Cc1cccc(OCC(=O)N2CCc3ccccc3C2)c1 | inconclusive: 25.9 µM [activator, single point] | 
COc1cc2c(cc1OC)CN(c1ccc(C(N)=O)cc1[N+](=O)[O-])CC2 | inconclusive: 18.3 µM [inhibitor, single point] | 
O=C(CCCc1ccccc1)NC12CC3CC(CC(C3)C1)C2 | inconclusive: 10 µM [activator, partial curve] | 
O=C(CN1CCNCC1)NCCSc1ccc(Cl)cc1 | inconclusive: 20.6 µM [activator, partial curve, poor fit] | 
CC(=O)c1ccc(Nc2cc(C)nc3nc(C)nn23)cc1 | inconclusive: 23.1 µM [activator, single point] | 
COc1ccccc1S(=O)(=O)Nc1ccc(-c2nnc3n2CCCCC3)cc1 | inconclusive: 5.62 µM [inhibitor, single point] | 
O=C(CNc1cc(S(=O)(=O)N2CCCC2)ccc1OCC(F)(F)F)Nc1cccc(C(F)(F)F)c1 | inconclusive: 25.9 µM [inhibitor, partial curve] | 
COC(=O)Cn1c(N)[n+](Cc2ccccc2)c2ccccc21 |  | inactive: 0.144%
Cc1ccccc1Cn1c(-c2cncs2)nc2ccccc21 | inconclusive: 23.1 µM [inhibitor, partial curve, poor fit] | 
Cc1ccc(NC(=O)CCNC(=O)c2ccc(Br)cc2)nc1 |  | inactive: 2.15%
O=C1CC(=C(c2ccccc2)c2ccccc2)C(=O)N1CCN1CCN(c2cccc(Cl)c2)CC1 | inconclusive: 20.6 µM [inhibitor, single point] | 
CC1CC(C)CN(CCCNC(=O)c2cc3c(=O)[nH]c4ccccc4c3n2C)C1 (stereo not drawn) | inconclusive: 29.1 µM [activator, single point] | 
O=C(NNC(=S)Nc1ccccc1Cl)c1ccncc1 | inconclusive: 18.3 µM [activator, partial curve, poor fit] | 

Copied from the list:
Value for `Cc1ccccc1Cn1c(-c2cncs2)nc2ccccc21` under Potency: inconclusive: 23.1 µM [inhibitor, partial curve, poor fit]
Value for `O=C(CNc1cc(S(=O)(=O)N2CCCC2)ccc1OCC(F)(F)F)Nc1cccc(C(F)(F)F)c1` under Potency: inconclusive: 25.9 µM [inhibitor, partial curve]
